Test [1] deals with NDRG1 (endogenous, HUVEC) (human (endogenous in HUVEC)) (UniProt Q92597). Nature of the test: co-IP; HUVEC lysate, endogenous proteins; precipitation with anti-PIM1 or anti-NDRG1, IgG as control; Protein A/G magnetic beads; western blot. A general note: A western blot detects proteins with antibodies after separation by electrophoresis.
Test [2] concerns the target NDRG1 (180-294aa)-His-Tag (UniProt Q92597). Nature of the test: co-IP; HEK 293T transfected with His-tagged NDRG1, its truncated mutants or vector; whole cell lysates precipitated with anti-His-Tag; blotted with anti-His-Tag and anti-PIM1 or anti-PTBP1.
The target of test [3] is NDRG1 (326-394aa)-His-Tag (UniProt Q92597). The description is as above.
Test [4] has as its target NDRG1 (endogenous, HUVEC) (human (endogenous in HUVEC)) (UniProt Q92597). The test is described as follows: co-IP; nuclear extract of HUVEC treated with H2O2 (200 uM) and TGF-beta (50 ng/mL, 48 h); endogenous proteins; precipitation with anti-NDRG1 or anti-PTBP1, IgG as control.

Amino acid sequences for entries named in this document (tags omitted). A change or cut given only in a name is not applied to a line headed by its entry. Residues count along the entry.
UniProt Q92597: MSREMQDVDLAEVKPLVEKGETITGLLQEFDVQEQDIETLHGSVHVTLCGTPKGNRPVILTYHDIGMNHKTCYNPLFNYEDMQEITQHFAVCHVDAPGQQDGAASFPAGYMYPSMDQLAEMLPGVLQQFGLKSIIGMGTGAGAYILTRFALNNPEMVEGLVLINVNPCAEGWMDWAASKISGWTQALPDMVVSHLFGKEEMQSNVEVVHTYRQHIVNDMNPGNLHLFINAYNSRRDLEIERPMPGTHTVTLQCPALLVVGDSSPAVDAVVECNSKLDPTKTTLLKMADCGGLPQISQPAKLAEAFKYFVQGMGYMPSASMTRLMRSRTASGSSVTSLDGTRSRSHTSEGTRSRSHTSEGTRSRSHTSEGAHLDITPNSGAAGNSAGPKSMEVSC
NDRG1 (180-294aa)-His-Tag: residues 180-294 of Q92597
NDRG1 (326-394aa)-His-Tag: residues 326-394 of Q92597
UniProt P11309: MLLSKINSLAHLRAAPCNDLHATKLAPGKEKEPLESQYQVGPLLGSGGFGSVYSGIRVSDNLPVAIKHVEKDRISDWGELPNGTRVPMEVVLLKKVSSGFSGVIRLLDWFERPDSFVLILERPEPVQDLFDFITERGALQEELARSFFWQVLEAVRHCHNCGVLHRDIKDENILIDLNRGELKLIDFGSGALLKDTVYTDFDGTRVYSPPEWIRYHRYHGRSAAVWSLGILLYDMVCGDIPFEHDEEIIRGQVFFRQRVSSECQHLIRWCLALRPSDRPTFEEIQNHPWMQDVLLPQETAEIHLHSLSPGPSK
UniProt P26599: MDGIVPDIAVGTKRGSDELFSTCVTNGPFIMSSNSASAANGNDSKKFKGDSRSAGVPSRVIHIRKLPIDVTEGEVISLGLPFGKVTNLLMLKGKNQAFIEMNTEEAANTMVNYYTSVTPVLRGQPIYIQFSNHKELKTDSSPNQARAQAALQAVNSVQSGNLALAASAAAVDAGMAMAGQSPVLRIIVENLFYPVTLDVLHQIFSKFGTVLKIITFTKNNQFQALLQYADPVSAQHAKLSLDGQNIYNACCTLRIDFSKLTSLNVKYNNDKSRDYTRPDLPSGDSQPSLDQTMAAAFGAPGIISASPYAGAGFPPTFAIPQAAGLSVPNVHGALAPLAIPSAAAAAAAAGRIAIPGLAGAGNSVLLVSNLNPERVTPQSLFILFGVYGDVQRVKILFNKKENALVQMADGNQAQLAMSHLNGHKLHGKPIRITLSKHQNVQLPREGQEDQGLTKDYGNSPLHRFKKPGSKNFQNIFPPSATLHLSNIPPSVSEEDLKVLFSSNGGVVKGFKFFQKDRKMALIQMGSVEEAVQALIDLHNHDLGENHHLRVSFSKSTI

Results are given in words; binding and its absence hold for the method and conditions named. In cells and extracts the contact can be indirect. Some binding calls cover weakened binding; strength is not graded here.

“PIM1 (endogenous, HUVEC) (from UniProt P11309 1-313) (enzyme)”: in test [1], the binding result is reported as “binds”.
As for “PIM1 (in HEK 293T whole cell lysate, detected with anti-PIM1) (from UniProt P11309 1-313) (enzyme)”, the binding entry in test [2] and in test [3] was “binds” each time.
In the case of “PTBP1 (endogenous, HUVEC) (from UniProt P26599 1-557)”, the binding result in test [4] is listed as “binds”.
Regarding “PTBP1 (in HEK 293T whole cell lysate, detected with anti-PTBP1) (from UniProt P26599 1-557)”, the binding result in test [2] and in test [3] was “binds” throughout.

Values taken from article PMC11671384.
